# Measurements reported in PubChem BioAssay AID1259308 (NCATS, 2017)
# Purpose: 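Knock-downs that increase output of a recombinant reporter protein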 (primary screen)
# Cell system: human HEK293 embryonic kidney cells stably expressing firefly luciferase (HEK-CMV-Luc2-Hygro)
# Reagents: single siRNA against human genes, 0.8 pmol siRNA per well
# Timing: 72 h
# Measurement: 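Reporter luminescence and viable-cell signal on separate replicate plates, given as percent of non-targeting control and median/MAD z-scores, plus per-cell luciferase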
# Scale: total luciferase, z-score and total luciferase, % of control: higher = more reporter protein produced; luciferase per cell, z-score: higher = more reporter output per viable cell; viable cells, % of control: higher = more viable cells
# Active means: 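Active when the median/MAD z-score for overall luciferase is greater than 3; a gene was taken forward for validation with new siRNAs if at least two of its three siRNAs passed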
# Meaning of the calls: active = raised luciferase; inactive = no rise
# The whole screen tested about 59,000 reagents; shown is an unselected part. Over the whole deposit, about 1,510 (2.6%) got an active call. 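Calls use total luciferase alone and ignore viability, so some active siRNAs may act by altering cell number.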 Reagents against one gene are numbered here.
target,reagent,"total luciferase, z-score","total luciferase, % of control","luciferase per cell, z-score","viable cells, % of control",call
SNRPC,1,1.8,118,1.06,99.4,inactive
SNRPC,2,-0.404,73.8,0.587,70.7,inactive
SNRPC,3,2.67,135,1.66,97.3,inactive
EMC6,1,-0.909,63.8,-1.15,96.6,inactive
EMC6,2,-0.217,77.6,-0.823,108,inactive
EMC6,3,-0.733,67.3,-0.296,81.3,inactive
ZCCHC10,1,-0.526,71.4,-0.269,85.7,inactive
ZCCHC10,2,0.00599,82,-0.273,98.5,inactive
ZCCHC10,3,0.84,98.6,0.919,86.5,inactive
ARID4B,1,-1.09,60.1,-1.39,97,inactive
ARID4B,2,-1.33,55.5,-1.25,86.2,inactive
ARID4B,3,-1.11,59.7,-0.686,80,inactive
H2AC11,1,0.164,85.2,-0.673,114,inactive
H2AC11,2,-2.31,35.9,-3.34,96.7,inactive
H2AC11,3,-1.14,59.3,-1.59,101,inactive
C9orf43,1,-0.531,71.3,-0.601,93.4,inactive
C9orf43,2,0.941,101,0.673,94.1,inactive
C9orf43,3,-0.585,70.3,-0.833,97.8,inactive

4 successive reagents from above, quoted:
target,reagent,"total luciferase, z-score","total luciferase, % of control","luciferase per cell, z-score","viable cells, % of control",call
EMC6,1,-0.909,63.8,-1.15,96.6,inactive
EMC6,2,-0.217,77.6,-0.823,108,inactive
EMC6,3,-0.733,67.3,-0.296,81.3,inactive
ZCCHC10,1,-0.526,71.4,-0.269,85.7,inactive

The listing continues.
target,reagent,"total luciferase, z-score","total luciferase, % of control","luciferase per cell, z-score","viable cells, % of control",call
CTSS,1,0.299,87.8,0.0975,95.7,inactive
CTSS,2,0.759,97,-0.201,114,inactive
CTSS,3,-0.0691,80.5,-0.83,112,inactive
TNK1,1,0.765,97.1,1.38,75.4,inactive
TNK1,2,0.625,94.3,0.735,86.8,inactive
TNK1,3,3.89,159,3.55,69.9,active
DDN,1,1.23,106,0.891,94.1,inactive
DDN,2,-1,62,-1.05,91.3,inactive
DDN,3,-0.221,77.5,-0.221,91.8,inactive
SLCO3A1,1,0.27,87.3,0.213,92.2,inactive
SLCO3A1,2,-0.169,78.5,-0.0825,89.7,inactive
SLCO3A1,3,0.137,84.6,-0.254,101,inactive
RHBDD2,1,-1.27,56.6,-1.23,87.4,inactive
RHBDD2,2,-0.766,66.6,-0.85,93.1,inactive
RHBDD2,3,-0.127,79.4,-0.199,93.5,inactive
BMP8B,1,3.09,143,2.32,86.9,active
BMP8B,2,-0.807,65.8,-0.835,91.6,inactive
BMP8B,3,-0.701,67.9,0.1,73.9,inactive
EZH2,1,1.74,116,1.02,99.4,inactive
EZH2,2,-1.62,49.7,-2.43,106,inactive
EZH2,3,0.0713,83.3,1.05,70.5,inactive
